Experimental data from patent publication US20140228277A1 (Genentech, published 2014).
Results are given in words; binding and its absence hold for the method and conditions named. Some binding calls cover weakened binding; strength is not graded here.

Chains of the proteins cited; added tags and fusions are not shown. Lines headed by an entry give the natural chain unless they say otherwise; changes in a name come on top.
UniProt P56817: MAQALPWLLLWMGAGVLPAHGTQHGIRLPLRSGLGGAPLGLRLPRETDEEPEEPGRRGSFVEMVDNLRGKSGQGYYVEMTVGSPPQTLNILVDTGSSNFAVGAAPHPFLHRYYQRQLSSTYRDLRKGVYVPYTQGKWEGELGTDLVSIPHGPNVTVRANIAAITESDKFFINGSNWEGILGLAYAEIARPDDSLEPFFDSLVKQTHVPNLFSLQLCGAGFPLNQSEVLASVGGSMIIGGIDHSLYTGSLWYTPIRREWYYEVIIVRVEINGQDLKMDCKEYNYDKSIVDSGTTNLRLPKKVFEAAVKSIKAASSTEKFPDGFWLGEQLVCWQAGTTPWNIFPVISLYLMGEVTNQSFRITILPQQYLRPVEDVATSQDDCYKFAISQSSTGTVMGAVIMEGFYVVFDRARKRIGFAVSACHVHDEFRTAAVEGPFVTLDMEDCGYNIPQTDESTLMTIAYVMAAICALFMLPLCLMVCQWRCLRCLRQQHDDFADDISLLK

Biological target: human BACE1 (residues 57-453), C-terminal His6 (human) (UniProt P56817)
Assay: co-crystal structure at 1.5 Å

Row | Binder | binding
1 | ESMYCRLLGIGCG (N-terminal acetyl (Ac); C-terminal amide (NH2); disulfide Cys5-Cys12) [BACE030] | binds

Biological target: T1, recombinant human BACE1 (rhBACE1) (human, UniProt P56817 22-457, limits assumed)
Assay: plate sorting on BACE1; phage ELISA

Row | Binder | binding
2 | SGNIPFFYGDRFLD (peptide, not shown: large carriers) [SEQ ID NO 59] | binds
3 | SGPYFVEFLSAVVVRSG (peptide, not shown: large carriers) [SEQ ID NO 61] | binds
4 | SGPYFIEYMSAV (peptide, not shown: large carriers) [phage-displayed peptide BACE010 (SEQ ID NO 21)] | binds
5 | SGVFFMACDYVNCTDFSV (peptide, not shown: large carriers) [SEQ ID NO 68] | binds
6 | SGYPYFPIINSENISSID (peptide, not shown: large carriers) [SEQ ID NO 62] | binds
7 | SGYFLCAFAHGWALCNAD (peptide, not shown: large carriers) [SEQ ID NO 66] | binds
8 | SGYFLCLFEDVWVSCGLL (peptide, not shown: large carriers) [SEQ ID NO 65] | binds
9 | SGGLPSGCLDYPCFVPIS (peptide, not shown: large carriers) [SEQ ID NO 64] | binds
10 | SGCFDYPCFLTIDI (peptide, not shown: large carriers) [SEQ ID NO 58] | binds
11 | SGTMFPYFLEV (peptide, not shown: large carriers) [SEQ ID NO 63] | binds
12 | SGVHYFLCIVESCSVYPA (peptide, not shown: large carriers) [SEQ ID NO 67] | binds
13 | SGSDIASLPTPYFLSI (peptide, not shown: large carriers) [SEQ ID NO 56] | binds
14 | SGTMFPYFLEVG (peptide, not shown: large carriers) [SEQ ID NO 57] | binds
15 | SGGLGFPYFIHVGA (peptide, not shown: large carriers) [SEQ ID NO 60] | binds

Biological target: T1, recombinant human BACE1 (rhBACE1)
Assay: used at 100 µM as competitor in solution sorting on BACE1

Row | Binder | binding
16 | SGPYFIEYMSAV (N-terminal acetyl (Ac); C-terminal amide (NH2)) [BACE010 (Ac-…-NH2)] | binds

Biological target: T1, recombinant human BACE1 (rhBACE1)
Assay: phage ELISA on BACE1; 70 nM BMS1 against peptide-displaying phage

Row | Binder | binding
17 | NLTTYPYFIPLP (N-terminal acetyl (Ac); C-terminal amide (NH2)) [BMS1] | binds

Biological target: T1, recombinant human BACE1 (rhBACE1)
Assay: solution sorting with BACE010 as competitor; phage spot ELISA

Row | Binder | binding
18 | KEESIYCRLMGLGCG (not shown: M13 major coat protein; peptide fused to its N-terminus) [phage-displayed peptide BACE018 (SEQ ID NO 14)] | binds
19 | KEESLYCRLLGLGCG (peptide, not shown: large carriers) [SEQ ID NO 89] | binds
20 | NMESVHCRLLGLGCG (not shown: M13 major coat protein; peptide fused to its N-terminus) [SEQ ID NO 69] | binds
21 | NEESIYCRLLGLACG (peptide, not shown: large carriers) [SEQ ID NO 72] | binds
22 | KEDSMYCRLLGLGCG (peptide, not shown: large carriers) [SEQ ID NO 73] | binds
23 | VEESIYCRLLGLGCG (not shown: M13 major coat protein; peptide fused to its N-terminus) [SEQ ID NO 74] | binds
24 | KEESIYCRLLGHGCG (peptide, not shown: large carriers) [SEQ ID NO 85] | binds
25 | KEENIYCRLLSLGCS (not shown: M13 major coat protein; peptide fused to its N-terminus) [SEQ ID NO 71] | binds
26 | NEVSLYCRLLDLGCG (peptide, not shown: large carriers) [SEQ ID NO 92] | binds
27 | NDESVYCRLLGIGCG (not shown: M13 major coat protein; peptide fused to its N-terminus) [SEQ ID NO 78] | binds
28 | IEESIYCRLLGFGCG (not shown: M13 major coat protein; peptide fused to its N-terminus) [SEQ ID NO 75] | binds
29 | TEESIYCRLLGLGCD (not shown: M13 major coat protein; peptide fused to its N-terminus) [SEQ ID NO 90] | binds
30 | YEESIYCRLLGLGCG (peptide, not shown: large carriers) [SEQ ID NO 87] | binds
31 | KEESIHCRLLGLGCG (not shown: M13 major coat protein; peptide fused to its N-terminus) [SEQ ID NO 80] | binds
32 | AEESIYCRLLGLGCG (peptide, not shown: large carriers) [SEQ ID NO 91] | binds
33 | NDENMYCRLLGLGCA (peptide, not shown: large carriers) [SEQ ID NO 95] | binds

Row | Binder | binding
34 | PEESLYCRLLALGCG (not shown: M13 major coat protein; peptide fused to its N-terminus) [phage-displayed peptide BACE021 (SEQ ID NO 17)] | binds
35 | NEESMYCRLLGIGCG (peptide, not shown: large carriers) [phage-displayed peptide BACE020 (SEQ ID NO 16)] | binds
36 | TDESIYCRLLSIACG (peptide, not shown: large carriers) [SEQ ID NO 84] | binds
37 | NDEHMYCRLLGLDCN (peptide, not shown: large carriers) [SEQ ID NO 94] | binds
38 | HEDHLYCRLLGIGCG (peptide, not shown: large carriers) [SEQ ID NO 88] | binds
39 | NGDNMYCRLLGLGCE (peptide, not shown: large carriers) [SEQ ID NO 76] | binds
40 | NPENNYCRLLNLGCG (not shown: M13 major coat protein; peptide fused to its N-terminus) [SEQ ID NO 93] | binds
41 | YEESIYCRLLGIGCG (peptide, not shown: large carriers) [SEQ ID NO 83] | binds
42 | NEENMYCRLMGIGCG (peptide, not shown: large carriers) [SEQ ID NO 86] | binds
43 | NDDSLYCRLLGLGCG (peptide, not shown: large carriers) [SEQ ID NO 82] | binds
44 | NVEHIHCRLLGLGCG (peptide, not shown: large carriers) [SEQ ID NO 81] | binds
45 | NELSPYCRLMGLGCD (not shown: M13 major coat protein; peptide fused to its N-terminus) [phage-displayed peptide BACE019 (SEQ ID NO 15)] | binds
46 | DVESVYCRLLGLGCG (peptide, not shown: large carriers) [SEQ ID NO 77] | binds
47 | TEESLYCRLLGVGCG (peptide, not shown: large carriers) [SEQ ID NO 79] | binds
48 | NEESIYCRLLGLGCG (peptide, not shown: large carriers) [SEQ ID NO 70] | binds
